The results in this text go back to US8648090B2, “Indole alkaloid derivatives having opioid receptor agonistic effect, and therapeutic compositions and methods relating to same” (National University Corporation Chiba University, priority 2007, dated 2014).

The test relates to guinea pig ileum. Briefly: Twitch contraction induced by electrical stimulation in guinea pig isolated ileum (Magnus assay). The following applies: Cavia porcellus, read-out: pD2 value (−log M) (converted).

As to `CN1CC[C@]23c4c5ccc(O)c4O[C@H]2[C@@H](O)C=C[C@H]3[C@H]1C5` [Morphine, reference compound], the EC50 was 70.8 nM.
